The supplement of paper PMC10398353
Structures can show the parent of a compound that is named as a salt. Some of the results follow. This is a noisy data set.

System: Salmonella enterica serovar Typhimurium ST313 D23580
Experiment: normalized bacterial growth (OD600 20 h minus 0 h, interquartile-mean normalized) (fraction of plate interquartile mean); higher = more bacterial growth (less inhibition)
Conditions: LPM (pH 5.8, low phosphate, low Mg2+), concentration: 10 µM, temperature: 37 °C

| Compound | normalized bacterial growth |
| --- | --- |
| O=c1ccc2ccccc2o1 | 1.13 |
| NCCOB(c1ccccc1)c1ccccc1 | 0.589 |
| CC1(C)C=Cc2cc3ccc(=O)oc3cc2O1 | 0.693 |
| CCOC(=O)c1c(C)cc(O)cc1O | 1.07 |
| CN(C)CCCN1c2ccccc2Sc2ccc(Cl)cc21 | 0.758 |
| CN(C)CCCN1c2ccccc2Sc2ccc(Cl)cc21 [Chlorpromazine hydrochloride] | 0.66 |
| CCCC1(C)C(C#N)(C#N)C1(C#N)C#N | 0.967 |
| CC1(C)C2CCC1(C(=O)O)C(=O)C2 (stereo not given) | 1.15 |
| O=c1[nH]cnc2c1ncn2[C@@H]1O[C@H](CO)[C@@H](O)[C@H]1O | 0.824 |
| CCCCOc1cc(CC2CNC(=O)N2)ccc1OC (stereo not given) | 1.12 |
| CC(C)Cn1c(=O)n(C)c(=O)c2[nH]cnc21 | 1.02 |
| CC(C)Cn1c(=O)n(C)c(=O)c2[nH]cnc21 [3-Isobutyl-1-methylxanthine] | 0.959 |
| Cc1n[nH]c(=O)[nH]c1=O ["Azathymine, 6"] | 1.18 |
| COc1cc([C@@H]2c3cc4c(cc3[C@@H](O[C@@H]3O[C@@H]5CO[C@@H](c6cccs6)O[C@H]5[C@H](O)[C@H]3O)[C@H]3COC(=O)[C@H]23)OCO4)cc(OC)c1O | 0.92 |
| CC(=O)N[C@@H](C=O)[C@@H](O)[C@H](O)[C@H](O)CO | 1.1 |
| N[C@@H](Cc1ccc(O)c(I)c1)C(=O)O [3-Iodo-L-tyrosine] | 1.45 |
| Nc1ccc(S(=O)(=O)Nc2ccccn2)cc1 | 1.3 |
| CO[C@H]1C[C@H](O[C@H]2[C@H](C)[C@@H](O[C@@H]3O[C@H](C)C[C@H](N(C)C)[C@H]3O)[C@@H](C)C[C@@]3(CO3)C(=O)[C@H](C)[C@@H](O)[C@@H](C)[C@@H](C)OC(=O)[C@@H]2C)O[C@@H](C)[C@@H]1O [Oleandomycin phosphate] | 0.995 |
| CO[C@H]1C[C@H](O[C@H]2[C@H](C)[C@@H](O[C@@H]3O[C@H](C)C[C@H](N(C)C)[C@H]3O)[C@@H](C)C[C@@]3(CO3)C(=O)[C@H](C)[C@@H](O)[C@@H](C)[C@@H](C)OC(=O)[C@@H]2C)O[C@@H](C)[C@@H]1O | 0.713 |
| Nc1ncnc2c1ncn2C1CCCO1 (stereo not given) | 0.994 |
| Nc1ccn([C@@H]2O[C@H](CO)[C@@H](O)[C@@H]2O)c(=O)n1 | 1.12 |
| Nc1ccn([C@@H]2O[C@H](CO)[C@@H](O)[C@@H]2O)c(=O)n1 [Cytosine-1-beta-D-arabinofuranoside hydrochloride] | 0.803 |
| OC[C@H]1O[C@H](OCC2O[C@@H](O)[C@H](O)[C@@H](O)[C@@H]2O)[C@H](O)[C@@H](O)[C@H]1O (stereo not given in full) | 1.12 |
| O=C(NCCO)c1ccc2c(c1)nc(Nc1cccc(Cl)c1)c1ccncc12 [CK2 Inhibitor 2] | 0.948 |
| COc1ccnc(C[S+]([O-])c2nc3cc(OC(F)F)ccc3[nH]2)c1OC (stereo not given) | 0.885 |
| O=C(O)[C@H](O)[C@@](O)(Cc1ccc(O)cc1)C(=O)O | 0.79 |
| N[C@H](C(=O)O)[C@H]1C[C@@H]1C(=O)O ["(2S,1'S,2'S)-2-(carboxycyclopropyl)glycine"] | 1.01 |
| COC(=O)C(N)Cc1ccc(Cl)cc1 (racemic) [DL-p-Chlorophenylalanine methyl ester hydrochloride] | 1.11 |

| Compound | normalized bacterial growth |
| --- | --- |
| O=c1c(O)c(-c2ccc(O)c(O)c2)oc2cc(O)cc(O)c12 | 1.03 |
| O=c1c(O)c(-c2ccc(O)c(O)c2)oc2cc(O)cc(O)c12 [Quercetine dihydrate] | 0.941 |
| O=C(O)C1(C(=O)O)CCC1.[NH2-].[NH2-].[Pt+2] | 1.16 |
| O=C(O)C1(C(=O)O)CCC1.[NH2-].[NH2-].[Pt+2] [Carboplatin] | 0.789 |
| CC(C)Cc1ccc(C(C)C(=O)O)cc1 (stereo not given) [()-Ibuprofen] | 1.16 |
| COC1=CC(=O)C=C(OC)C1=O | 0.681 |
| COc1ccc(C(=O)c2ccccc2O)c(O)c1 | 0.953 |
| COCCc1ccc(OCC(O)CNC(C)C)cc1 (stereo not given) | 0.588 |
| COCCc1ccc(OCC(O)CNC(C)C)cc1 (stereo not drawn) [()-Metoprolol (+)-tartrate] | 1 |
| CCOc1ccc(NC(C)=O)cc1 | 1.05 |
| CN1CCC[C@@H]1CCO[C@](C)(c1ccccc1)c1ccc(Cl)cc1 [Clemastine fumarate] | 0.851 |
| CN1CCC[C@@H]1CCO[C@](C)(c1ccccc1)c1ccc(Cl)cc1 | 1 |
| O=C(c1ccc(OCCCc2c[nH]cn2)cc1)C1CC1 [Ciproxifan hydrochloride] | 0.478 |
| CC(C(=O)O)c1ccc(C(=O)c2cccs2)cc1 (stereo not given) [Suprofen] | 1.11 |
| CCCCC[C@H](O)/C=C/[C@H]1[C@H](O)CC(=O)[C@@H]1CCCCCCC(=O)O | 1.06 |
| O=C(O)c1cccnc1C(=O)O [Quinolinic acid] | 1.04 |
| O=C(O)c1ccccc1 | 1.33 |
| CCN1CCC[C@H]1CNC(=O)c1c(O)c(Cl)cc(Cl)c1OC [S(+)-Raclopride L-tartrate] | 1.04 |
| CN(CC[C@@H](Oc1ccc(C(F)(F)F)cc1)c1ccccc1)CC(=O)[O-].[Li+] | 0.83 |
| CN[C@@H]1[C@H](O[C@H]2[C@H](O[C@H]3[C@H](O)[C@@H](O)[C@H](NC(=N)N)[C@@H](O)[C@@H]3NC(=N)N)O[C@@H](C)[C@]2(O)CO)O[C@@H](CO)[C@H](O)[C@H]1O | 1.06 |
| CN[C@@H]1[C@H](O[C@H]2[C@H](O[C@H]3[C@H](O)[C@@H](O)[C@H](NC(=N)N)[C@@H](O)[C@@H]3NC(=N)N)O[C@@H](C)[C@]2(O)CO)O[C@@H](CO)[C@H](O)[C@H]1O [Dihydrostreptomycin sulfate] | 0.851 |
| NCc1ccc(S(N)(=O)=O)cc1 | 1.09 |
| COc1cc2oc3cc(OC)c(OC)c(CC=C(C)C)c3c(=O)c2c(OC)c1CC=C(C)C | 0.65 |
| CCc1oc2ccccc2c1C(=O)c1cc(Br)c(O)c(Br)c1 | 1.15 |
| CC/C(=C(\c1ccccc1)c1ccc(OCCN(C)C)cc1)c1ccccc1 [Tamoxifen citrate] | 1.41 |
| C#C[C@]1(O)CC[C@H]2[C@@H]3CCC4=C(CCC(=O)C4)[C@H]3CC[C@@]21C | 1.18 |
| C#C[C@]1(O)CC[C@H]2[C@@H]3CCC4=C(CCC(=O)C4)[C@H]3CC[C@@]21C [Norethynodrel] | 0.894 |

Two records drawn at random from those above:

| Compound | normalized bacterial growth |
| --- | --- |
| O=C(c1ccc(OCCCc2c[nH]cn2)cc1)C1CC1 [Ciproxifan hydrochloride] | 0.478 |
| CC1(C)C2CCC1(C(=O)O)C(=O)C2 (stereo not given) | 1.15 |
